Source: PubChem BioAssay AID504804 (Drosophila RNAi Screening Center, 2011)

Test: 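dsRNAs that improve Kc cell survival under doxorubicin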 (primary screen)
Cells: Drosophila Kc cells
Knock-down reagent: long dsRNA against Drosophila genes, 0.5 µg dsRNA per well
Time to read-out: 96 h (48 h knock-down, then 48 h drug)
Conditions: doxorubicin 5 µg/ml for 48 h, added 48 h after dsRNA
Read-out: 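Luminescent ATP counts per replicate, not normalised, reflecting viable cells after 48 h dsRNA knock-down followed by 48 h of 5 µg/ml doxorubicin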
Scale: raw ATP luminescence: higher = more viable cells, protection from doxorubicin
Call rule: 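Active when both duplicate wells lie at least 2 SD above the plate mean and protection is confirmed by rescreening and independent dsRNAs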
The screen tested about 19,000 reagents; shown is an unselected part of those that have a named target and a result. Of all reagents, 47 (0.25%) got an active call. 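Signals are raw, not normalised; exact z-scores behind calls not deposited; actives needed confirmation, so some wells reaching 2 SD are inactive.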 Entries without a mark were called inactive.

| Target gene | DRSC id | raw ATP luminescence, replicate 1 | raw ATP luminescence, replicate 2 |
| --- | --- | --- | --- |
| CG7912 (GeneID 43561) | DRSC16343 | 46800 | 45240 |
| CG8476 (GeneID 41624) | DRSC16426 | 76250 | 63060 |
| NiPp1 (GeneID 44748) | DRSC07307 | 59487 | 60967 |
| CG8012 (GeneID 50305) | DRSC10951 | 43350 | 68247 |
| CG9313 (GeneID 37374) | DRSC04540 | 84787 | 79400 |
| DopEcR (GeneID 38539) | DRSC08529 | 40517 | 33427 |
| Drsl4 (GeneID 317954) | DRSC08034 | 1.35e5 | 1.23e5 |
| mam (GeneID 36555) | DRSC05468 | 22300 | 23367 |
| CG31551 (GeneID 318795) | DRSC12159 | 92717 | 31097 |
| CG7882 (GeneID 35520) | DRSC04899 | 61163 | 46307 |
| CG31650 (GeneID 326150) | DRSC03140 | 77153 | 77937 |
| Itpr (GeneID 40664) | DRSC12354 | 58457 | 58153 |
| Alp12 (GeneID 35218) | DRSC02515 | 58380 | 60737 |
| eIF4E4 (GeneID 38743) | DRSC09701 | 67707 | 72437 |
| gdrd (GeneID 39599) | DRSC10020 | 52410 | 41330 |
| CG32813 (GeneID 31089) | DRSC17948 | 48330 | 56620 |
| Dyrk3 (GeneID 3885567) | DRSC21055 | 1.98e5 | 1.93e5 |
| CG8159 (GeneID 41040) | DRSC16392 | 70350 | 68807 |
| BaraB (GeneID 35894) | DRSC06420 | 48803 | 85073 |
| ara (GeneID 39439) | DRSC11322 | 41230 | 38277 |
| CG12617 (GeneID 50470) | DRSC02176 | 58753 | 71970 |
| CG17196 (GeneID 43112) | DRSC15189 | 70560 | 70910 |
| PIG-K (GeneID 31163) | DRSC18496 | 50550 | 50380 |
| Ldh (GeneID 45880) | DRSC11198 | 92747 | 99407 |
| Pgant5 (GeneID 326151) | DRSC03149 | 1.05e5 | 85160 |
| SuUR (GeneID 45739) | DRSC11292 | 93083 | 73957 |
| CG3337 (GeneID 42519) | DRSC15478 | 2.22e5 | 2.18e5 |
| CG9394 (GeneID 37399) | DRSC04550 | 43603 | 47820 |
| Nup50 (GeneID 35784) | DRSC06827 | 76623 | 57413 |
| Idua (GeneID 34544) | DRSC02941 | 1.11e5 | 87467 |
| CG16790 (GeneID 41155) | DRSC15156 | 61393 | 55093 |
| Ugt36A1 (GeneID 44058) | DRSC00748 | 23903 | 31520 |
| Prestin (GeneID 39996) | DRSC10507 | 52583 | 50203 |
| CG8854 (GeneID 36324) | DRSC07288 | 74927 | 64533 |

Part of the list above, limited to “raw ATP luminescence, replicate 1”:
Alp12 (GeneID 35218) [DRSC02515] = 58380
eIF4E4 (GeneID 38743) [DRSC09701] = 67707
gdrd (GeneID 39599) [DRSC10020] = 52410
CG32813 (GeneID 31089) [DRSC17948] = 48330
